Among the data in paper PMC9450262 are binding values, retold here.

Sequences of proteins named here, by UniProt entry; tags and fusion partners are left off.
UniProt Q80SY4: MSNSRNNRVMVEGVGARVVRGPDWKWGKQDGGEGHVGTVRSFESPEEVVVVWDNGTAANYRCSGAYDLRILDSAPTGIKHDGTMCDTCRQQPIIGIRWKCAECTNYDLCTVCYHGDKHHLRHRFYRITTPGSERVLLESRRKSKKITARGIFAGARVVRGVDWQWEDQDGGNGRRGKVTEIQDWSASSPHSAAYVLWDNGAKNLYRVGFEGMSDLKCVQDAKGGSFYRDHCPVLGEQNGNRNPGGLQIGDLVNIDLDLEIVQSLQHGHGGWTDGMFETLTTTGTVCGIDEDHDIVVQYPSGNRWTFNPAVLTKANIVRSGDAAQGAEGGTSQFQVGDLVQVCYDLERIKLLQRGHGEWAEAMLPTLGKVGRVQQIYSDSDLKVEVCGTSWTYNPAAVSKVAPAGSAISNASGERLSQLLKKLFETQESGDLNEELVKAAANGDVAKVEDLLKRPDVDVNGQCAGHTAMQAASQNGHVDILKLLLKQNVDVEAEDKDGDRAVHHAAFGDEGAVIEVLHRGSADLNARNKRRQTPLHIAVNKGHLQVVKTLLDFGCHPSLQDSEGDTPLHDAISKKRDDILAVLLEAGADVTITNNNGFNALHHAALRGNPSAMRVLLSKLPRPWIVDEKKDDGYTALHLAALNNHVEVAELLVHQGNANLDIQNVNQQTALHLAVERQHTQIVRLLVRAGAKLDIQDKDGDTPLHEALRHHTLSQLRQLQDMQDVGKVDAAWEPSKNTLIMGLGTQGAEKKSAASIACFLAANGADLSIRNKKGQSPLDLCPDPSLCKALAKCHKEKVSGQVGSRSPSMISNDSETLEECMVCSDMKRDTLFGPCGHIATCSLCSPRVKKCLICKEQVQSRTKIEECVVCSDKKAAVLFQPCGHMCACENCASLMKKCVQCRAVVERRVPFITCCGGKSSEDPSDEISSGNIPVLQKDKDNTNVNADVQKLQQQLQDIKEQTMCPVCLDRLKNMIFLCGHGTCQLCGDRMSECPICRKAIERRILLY

No constants are given. Whether binding was seen depends on the method and setting. In cells and extracts the contact can be indirect. Some binding calls cover weakened binding; strength is not graded here.

In the assay the target is T1, Acid ceramidase (ASAH1) (mouse (endogenous in primary pancreatic acinar cells of C57BL/6 mice)) (UniProt Q9WV54).
T1 sequence: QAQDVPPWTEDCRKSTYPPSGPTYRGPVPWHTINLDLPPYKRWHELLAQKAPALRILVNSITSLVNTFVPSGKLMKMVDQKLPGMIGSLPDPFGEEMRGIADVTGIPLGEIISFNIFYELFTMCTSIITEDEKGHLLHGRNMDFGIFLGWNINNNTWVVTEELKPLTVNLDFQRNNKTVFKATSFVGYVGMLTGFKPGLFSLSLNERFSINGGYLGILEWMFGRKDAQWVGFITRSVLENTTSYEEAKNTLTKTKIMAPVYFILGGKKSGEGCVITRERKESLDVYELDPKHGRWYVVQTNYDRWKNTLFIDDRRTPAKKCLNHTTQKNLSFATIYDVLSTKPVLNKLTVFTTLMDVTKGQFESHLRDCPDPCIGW
Description: co-IP; lysate of primary pancreatic acinar cells (saline or 200 nM cerulein plus 10 ng/mL LPS, 6 h) incubated overnight at 4 °C with anti-ASAH1 antibody (mouse), Protein A/G magnetic beads; Western blotting. A general note: In western blotting, separated proteins are transferred to a membrane and probed.

Consider “E3 ligase Mind bomb homolog 1 (MIB1) (from UniProt Q80SY4 1-1006) (enzyme)”, for which the binding entry is reported as “binds”.
